# Source: PubChem BioAssay AID2551 (National Center for Advancing Translational Sciences (NCATS), 2010)
# Amino acid sequences for entries named in this document (tags omitted). A change or cut given only in a name is not applied to a line headed by its entry.
# UniProt P51450: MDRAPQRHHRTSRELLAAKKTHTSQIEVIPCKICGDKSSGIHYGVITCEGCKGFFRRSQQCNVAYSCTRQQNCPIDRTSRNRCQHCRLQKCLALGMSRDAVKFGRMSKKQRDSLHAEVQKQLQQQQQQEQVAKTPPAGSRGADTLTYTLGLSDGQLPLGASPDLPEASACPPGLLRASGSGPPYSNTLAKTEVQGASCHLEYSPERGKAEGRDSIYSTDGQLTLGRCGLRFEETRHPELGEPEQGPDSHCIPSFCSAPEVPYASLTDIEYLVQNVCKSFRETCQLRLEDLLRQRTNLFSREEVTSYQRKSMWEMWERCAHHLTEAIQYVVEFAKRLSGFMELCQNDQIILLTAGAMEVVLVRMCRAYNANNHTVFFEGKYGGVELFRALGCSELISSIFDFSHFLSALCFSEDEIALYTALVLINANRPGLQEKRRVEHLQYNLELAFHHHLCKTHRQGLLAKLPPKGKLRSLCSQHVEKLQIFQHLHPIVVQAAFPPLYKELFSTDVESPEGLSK
# The campaign covered roughly 310,000 compounds. About 17,000 (5.5%) were called active. This list was built around the results that the source calls inconclusive (neither active nor inactive); the mix of calls is not that of the screen. Calls follow the shape of the dose curve; as a rule, active = well fitted inhibition curve with a large enough effect; inconclusive = small, poorly fitted or top-dose-only effect, or effect the other way; inactive = no such curve, though single readings can be large or run the other way. Where the call is inconclusive, the potency comes from a doubtful curve fit.
# Biological target: Nuclear receptor ROR-gamma (Mus musculus) (UniProt P51450)
# Experiment: qHTS for inhibitors of ROR gamma transcriptional activity; also: nearly all actives have a fitted effect of over 60% in size
# Conditions: Drosophila S2 Gal4-RORgamma UAS-luciferase reporter, 20 h; activity change, negative = inhibition: at 53.6 µM (top of the series)
# Outline: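 Drosophila S2 cells stably expressing Gal4-DBD/mouse RORγ fusion under metallothionein promoter plus UAS-luciferase; compound 1 h, then 700 uM CuSO4 induction for 20 h at ambient temperature; inhibition read as reduced luminescence.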
# % is scaled to controls: 0 for no effect and ±100 for the full control effect; potency is read from the fitted curve at half-maximal effect.
SMILES,"activity change, negative = inhibition",Potency
Oc1cnc2ccccc2c1CN1CCOCC1,inactive: 9.73%,
COC(=O)[C@H](Cc1ccccc1)NC(=O)C1CCN(C(=O)[C@H](C)NS(=O)(=O)c2ccc(C)cc2)CC1,inactive: -11.8%,
CNC(=S)N/N=C/c1ccc(-c2ccc(C(=O)O)cc2)o1,,active: 3.98 µM
COc1cccc2cc(C(=O)Nc3ccc(F)cc3)c(=Nc3ccc(C(=O)O)cc3)oc12,,"inconclusive: 6.31 µM [inhibitor, partial curve]"
COC(=O)C(C)Sc1ccc2nnc(-c3cccc(F)c3)n2n1 (configuration not stated),,"inconclusive: 0.0794 µM [inhibitor, full curve, poor fit]"
CCCC[C@@H]1C[C@H]1C(NC(=O)c1ccccc1)c1ccccc1C(F)(F)F (some centres not stated),,"inconclusive: 8.91 µM [inhibitor, partial curve]"
CCCC[C@@H]1CCCO[C@@](C(=O)NCCN2CCOCC2)(C(F)(F)F)C1,inactive: 17.4%,
O=C1C=C(Nc2cccc(O)c2)CC(c2ccco2)C1 (configuration not stated),,"inconclusive: 2.24 µM [activator, full curve, poor fit]"
Cc1ccc(NC(=O)CSC2=C(C#N)C(c3ccc4c(c3)OCO4)CC(=O)N2)cc1C (configuration not stated),,"inconclusive: 7.94 µM [activator, partial curve]"
Cc1cccc(-c2nc(Nc3ccc(N4CCOCC4)cc3)c3ccccc3n2)c1,,"inconclusive: 17.8 µM [activator, single point]"
C=C1CCN(C(CC(C)C)C(=O)NCCCc2ccccc2)S(=O)(=O)c2ccccc21 (configuration not stated),,"inconclusive: 22.4 µM [activator, single point]"
CCn1c(Sc2ccc([N+](=O)[O-])cn2)nnc1-c1ccco1,,active: 10 µM
N#CCSCC(=O)Nc1ccccc1,,"inconclusive: 35.5 µM [activator, single point]"
Cc1cccc(-n2c(N)cc(=O)[nH]c2=S)c1,,"inconclusive: 0.708 µM [inhibitor, full curve, poor fit]"
Cc1cc([N+](=O)[O-])ccc1NC(=S)NC(=O)C(c1ccccc1)c1ccccc1,,active: 7.94 µM
Cc1cc(C)n(-c2ncc(-c3ccccc3)nn2)n1,,"inconclusive: 14.1 µM [inhibitor, single point]"
Cc1coc2cc3oc(=O)c(CCC(=O)NCc4ccccn4)c(C)c3cc12,,"inconclusive: 5.62 µM [inhibitor, partial curve]"
Cc1ccc(SCCNS(=O)(=O)c2ccc(F)cc2)cc1,,"inconclusive: 3.16 µM [inhibitor, single point]"
CCn1c(=O)c(C(=O)NCCc2ccc(Cl)cc2)c(O)c2ccccc21,,"inconclusive: 22.4 µM [inhibitor, single point]"
CCn1cc(CN2CCc3c([nH]c4ccccc34)C2c2cccc(O)c2)c(C)n1 (configuration not stated),inactive: 18.6%,
Cc1ccc(NC(=S)N2CCC(N(C)CC3CCCO3)CC2)cc1 (configuration not stated),inactive: -16.9%,
CC1Sc2ccc(S(=O)(=O)CCC(=O)NCc3cccs3)cc2NC1=O (configuration not stated),inactive: 31.8%,
CC(=O)N(CN1C(=O)CCC1=O)c1cccc(Cl)c1,inactive: -16.3%,
COc1ccc(N2CCN(C(=O)CSc3nnnn3-c3ccc4c(c3)OCCO4)CC2)cc1,,"inconclusive: 14.1 µM [activator, single point]"

SMILES,"activity change, negative = inhibition",Potency
Cc1ccc(CSCc2nnc(SCC(=O)N3CCN(c4ccccc4)CC3)n2C)cc1,,"inconclusive: 15.8 µM [inhibitor, single point]"
COc1ccc(C(=O)/C=C/c2ccc(F)cc2)c(OC(=O)c2ccc([N+](=O)[O-])cc2)c1,,"inconclusive: 15.8 µM [inhibitor, single point]"
Cc1cccc(NC(=S)N(CCCN2CCOCC2)C(C)c2cc3ccccc3o2)c1C (configuration not stated),,active: 10 µM
Cc1cccc(CSCc2ccc(C(=O)NCC3CCCO3)o2)c1 (configuration not stated),,"inconclusive: 20 µM [activator, single point]"
C=CCNc1nc(=S)[nH]c2cc(OC)c(OC)cc12,,"inconclusive: 35.5 µM [inhibitor, single point]"
CC1CCN(C(=S)c2ccc3c(c2)OCO3)CC1,inactive: -6.33%,
Nc1c(S(=O)(=O)c2cccs2)c2nc3ccccc3nc2n1/N=C/c1cccc(O)c1,,"inconclusive: 22.4 µM [inhibitor, single point]"
Cc1cc(C)c2c(=O)n(CC(=O)N3CCC(Cc4ccccc4)CC3)sc2n1,,"inconclusive: 35.5 µM [inhibitor, single point]"
CC1SCC(NC(=O)c2cccc(Cl)c2)CS1 (configuration not stated),,"inconclusive: 6.31 µM [activator, partial curve]"
Cc1ccc(C)c(NC(=O)C2CC(O)CN2C(=O)Oc2ccccc2)c1 (configuration not stated),inactive: -0.782%,
COc1ccc(-c2cc(C(F)(F)F)n3nc(N)nc3n2)cc1,,"inconclusive: 28.2 µM [activator, partial curve, poor fit]"
CCCc1cc(=O)oc2cc(C)cc(OCC(=O)NCc3ccncc3)c12,inactive: -4.95%,
O=C(Nc1ncc(Cc2cccc(Cl)c2)s1)C1CCCO1 (configuration not stated),,"inconclusive: 22.4 µM [inhibitor, single point]"
C=CCNc1oc(/C=C/c2ccccc2)nc1C#N,,"inconclusive: 5.01 µM [activator, single point]"
Cc1cccc2sc(N(CCCN(C)C)C(=O)COc3ccc(Cl)cc3)nc12,,"inconclusive: 28.2 µM [inhibitor, single point]"
Cc1ccc2cc(C)c(SCC(=O)Nc3ccc(S(=O)(=O)N4CCCC4)cc3)nc2c1,inactive: -26.5%,
CC(=O)Nc1nc(NC(=O)C(Cl)(Cl)Cl)n(-c2ccccc2)n1,,active: 7.08 µM
C=C(C)CNC(=S)NNC(=O)CCn1c2cc(Cl)ccc2c2ccc(Cl)cc21,,active: 5.01 µM
COc1ccc(NC(=S)N2CCc3ccccc32)cc1OC,,active: 8.91 µM
CCn1c(=S)[nH]c2scc(-c3cccs3)c2c1=O,,active: 0.708 µM
Cc1ccc(-c2cc(-c3ccc(C)o3)nc(N)c2C#N)cc1,,"inconclusive: 14.1 µM [inhibitor, single point]"
CCOc1ccc(NC(=O)NC(=O)N(C(C)C)S(C)(=O)=O)cc1,inactive: 19.5%,
O=C(CN(Cc1ccccc1)C(=O)CNS(=O)(=O)c1ccc(F)cc1)NCc1ccco1,,"inconclusive: 3.16 µM [activator, full curve, poor fit]"

# Some of the entries so far, with bars between the fields:
SMILES | activity change, negative = inhibition | Potency
CC1CCN(C(=S)c2ccc3c(c2)OCO3)CC1 | inactive: -6.33% | 
Nc1c(S(=O)(=O)c2cccs2)c2nc3ccccc3nc2n1/N=C/c1cccc(O)c1 |  | inconclusive: 22.4 µM [inhibitor, single point]
Cc1cc(C)c2c(=O)n(CC(=O)N3CCC(Cc4ccccc4)CC3)sc2n1 |  | inconclusive: 35.5 µM [inhibitor, single point]
